# Measurements as given in the supplement of paper PMC10689618.
# Counter-ions that a name gives are not always drawn. Some of the results follow. Many values rest on one well or one pass, so single values are uncertain.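 Labelled rat cortical synaptosomes were engulfed by primary human fetal astrocytes. Engulfment equaled a red/green ratio, corrected for calcein live-cell signal and normalized to the plate median. Compounds were toxic when calcein dropped over 30%, and reduced phagocytosis when below 70% of the median above 5 µM.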
# Tests used:
# [1] = system: Human fetal astrocytes; experiment: loss of total cells relative to no-compound high-control median (toxicity); higher = more toxic (fewer cells); details: 24 h
# [2] = system: Human fetal astrocytes; experiment: synaptosome phagocytosis (pHrodo/calcein intensity ratio) relative to plate median of data wells; higher = more phagocytosis; details: 24 h
SMILES,loss of total cells ([1]; 1.39 µM) [%],loss of total cells ([1]; 2.78 µM) [%],loss of total cells ([1]; 5.56 µM) [%],loss of total cells ([1]; 11.11 µM) [%],loss of total cells ([1]; 22.22 µM) [%],synaptosome phagocytosis ([2]; 1.39 µM) [%],synaptosome phagocytosis ([2]; 2.78 µM) [%],synaptosome phagocytosis ([2]; 5.56 µM) [%],synaptosome phagocytosis ([2]; 11.11 µM) [%],synaptosome phagocytosis ([2]; 22.22 µM) [%]
Nc1ccc(C(=O)Oc2ccccc2)c(O)c1,-6.6,8.2,-3.9,7.8,-0.6,101,101,120,89.2,109
COc1c2occc2cc2ccc(=O)oc12,6.8,-1,8.4,-13,39.8,113,113,133,99.7,151
COc1cc2cc3c4cc(OC)c(OC)cc4cc[n+]3c(C)c2cc1OC,19.9,26.4,23.2,11.3,39.4,122,119,131,126,81.1
c1ccc(-c2ccc(C(c3ccccc3)n3ccnc3)cc2)cc1 (stereo not given),-35.5,36.5,-6.8,25.2,27.7,95.7,146,96.8,108,137
C[C@H]1C(=O)CC[C@@H]2[C@]1(C)CC[C@H]1[C@@]2(C)CC[C@@]2(C)[C@@H]3CC(C)(C)CC[C@]3(C)CC[C@]12C,-6.9,8,-11.5,20.6,8.5,138,117,114,111,102
COc1cnc(NS(=O)(=O)c2ccc(N)cc2)nc1,-6.6,-13.1,-4.5,-17.2,7.9,81,107,112,72.4,97.7
C[C@H]1[C@H](C)CC[C@]2(C(=O)O)CC[C@]3(C)C(=CC[C@@H]4[C@@]5(C)C[C@@H](O)[C@H](O)[C@@](C)(CO)[C@@H]5CC[C@]43C)[C@H]12,-18,-14.8,2.9,9.5,26.7,111,104,126,94.6,131
CC1NC(=O)NC1=O (stereo not given),23.6,-8.6,38.9,45.8,-3.3,93.5,74.7,142,141,81.6
C/C=C1\[C@H]2C=C(C)C[C@]1(N)c1ccc(=O)[nH]c1C2,-23.8,-15.5,-11,10.1,-0.7,127,112,119,107,92.2
CNCc1ccccc1,-8.2,-1.8,0.7,10.8,-3.7,124,80.3,125,130,121
C#CCCCCCCCCCCCC(O)CC(O)CO (stereo not given),12,2.7,-37.4,16.8,-10.7,65.2,56.3,66.7,57.8,52.5
C#C[C@]1(O)CC[C@H]2[C@@H]3CCC4=CC(=O)CC[C@@H]4[C@H]3CC[C@@]21C,0,1.5,10.5,-2.3,21.5,87.9,123,96.7,88.1,110
CCc1cn([C@H]2C[C@H](O)[C@@H](CO)O2)c(=O)[nH]c1=O,-29.8,14.3,-4.3,35.7,17.1,81.7,104,87.3,108,104
C#C[C@]1(O)CC[C@H]2[C@@H]3CCC4=Cc5oncc5C[C@]4(C)[C@H]3CC[C@@]21C,-0.3,-13.2,-4.9,-2.6,-6.4,95.7,99.7,96,95.1,76.2
CC(C)(c1ccc(O)cc1)c1ccc(O)cc1,12.6,-9.7,2.9,17.2,18.2,71.5,66.9,93,103,124
COc1ccc(C(=O)O)c(O)c1OC,-27,-24.2,6.6,5.4,14.1,137,73.3,121,102,91.9
Nc1ccccc1C(=O)CC(N)C(=O)O (stereo not given),4.1,-4,-18.3,10.8,3.7,89.9,95.2,87,103,124
CN(C)[C@@H]1C(=O)C(C(=O)NCN2CCCC2)=C(O)[C@@]2(O)C(=O)C3=C(O)c4c(O)cccc4[C@@](C)(O)[C@H]3C[C@@H]12,-29,29.4,11.8,38.4,34.6,108,130,122,121,144
C=C1c2cccc(O)c2C(O)=C2C(=O)[C@]3(O)C(O)=C(C(N)=O)C(=O)[C@@H](N(C)C)[C@@H]3[C@@H](O)[C@H]12,-22.4,-16.2,3.3,-23.4,19.3,123,96.9,102,82.8,104
CC[C@]12CCCN3CCc4c(n(c5ccccc45)[C@@](O)(C(=O)OC)C1)[C@@H]32,9,16.2,16.7,2.9,18.9,112,103,114,127,96.8
CCOC(=O)c1c(C)cc(O)c(C=O)c1O,-15.6,-12.6,25.2,49,5.6,91.6,51.2,94.8,72.4,83.7

SMILES,loss of total cells ([1]; 1.39 µM) [%],loss of total cells ([1]; 2.78 µM) [%],loss of total cells ([1]; 5.56 µM) [%],loss of total cells ([1]; 11.11 µM) [%],loss of total cells ([1]; 22.22 µM) [%],synaptosome phagocytosis ([2]; 1.39 µM) [%],synaptosome phagocytosis ([2]; 2.78 µM) [%],synaptosome phagocytosis ([2]; 5.56 µM) [%],synaptosome phagocytosis ([2]; 11.11 µM) [%],synaptosome phagocytosis ([2]; 22.22 µM) [%]
CC(C)[N+]1(C)[C@@H]2CC[C@H]1C[C@@H](OC(=O)C(CO)c1ccccc1)C2 (stereo not given in full),14.5,-17.3,-1.4,2.6,-7.6,102,105,97.4,86.8,90
CN(C)CCCN1c2ccccc2Sc2ccccc21 [Promazine hydrochloride],8.6,-9.2,-14.6,29.1,44.7,91.5,81.6,75.6,51.3,17.1
CC(=O)OCC(=O)[C@@]12OC3(CCCC3)O[C@@H]1C[C@H]1[C@@H]3CCC4=CC(=O)C=C[C@]4(C)[C@@]3(F)[C@@H](O)C[C@@]12C,-38.7,-15.1,3.7,16.1,-0.3,89.3,105,80,98.7,110
COc1ccc2c(c1)OCC(Cc1ccc(OC)c(O)c1)C2=O (stereo not given),1.1,9.3,-10.7,41.3,-8.5,131,127,55.5,92.8,93.9
O=C(O[C@@H]1Cc2c(O)cc(O)cc2O[C@@H]1c1cc(O)c(=O)c2c(O)c(O)cc([C@H]3Oc4cc(O)cc(O)c4C[C@H]3O)c2c1)c1cc(O)c(O)c(O)c1,-8.3,20.6,36.2,28,35.6,84.3,88.2,107,78.4,52
C=CCSCC1Nc2cc(Cl)c(S(N)(=O)=O)cc2S(=O)(=O)N1 (stereo not given),15.7,-25.4,-6.3,8.9,-22.2,107,142,97.8,117,96.8
CCOc1ccc2c(c1)C(C)=CC(C)(C)N2,2.5,-1.1,16.7,29.7,50.8,97.9,127,108,110,87.2
C[C@H]1C[C@@H]2[C@H]([C@@H](O)C[C@@]3(C)[C@H]2CC[C@]3(O)C(=O)CO)[C@@]2(C)C=CC(=O)C=C12,-14.9,-10.1,10.5,-19.5,11.3,57.3,92.7,107,83.4,106
Oc1ccc([C@H]2Oc3cc(O)cc(O)c3C[C@H]2O)cc1,-28.6,10.6,-5.3,7.7,4.8,196,184,120,114,90.3
CN[C@@H]1[C@@H](O[C@H]2O[C@H](CO)[C@@H](N)[C@H](O)[C@H]2O)OC2C[C@@H](N)[C@@H](O[C@H]3[C@H](O)[C@@H](O)[C@H](N)C[C@@H]3N)OC2[C@@H]1O (stereo not given in full),-40.3,-22.2,-0.6,43.6,8.4,125,120,99.3,129,121
NC(=O)C1(N2CCCCC2)CCN(CCCC(=O)c2ccc(F)cc2)CC1,-41.1,19,-10.6,47.5,-0.9,112,104,90.9,154,114
CC(C)NCC(O)c1cc(O)cc(O)c1 (stereo not given),18.3,-3.4,8.7,-10.2,14.2,88.9,115,88.9,85.8,89.5
CC1(C)C(=O)[C@H]2C[C@]3(O)C4=CC(=O)O[C@@H](c5ccoc5)[C@@]4(C)CCC3[C@](C)(C2=O)[C@H]1CC(=O)O (stereo not given in full),-4.7,-6.6,36.6,43.9,0.4,110,97.7,146,96.6,117
CC(O)(P(=O)(O)O)P(=O)(O)O,-38.7,-22.2,-4.3,-11.5,-5.3,86.7,92.5,121,101,89
COc1cc(OC)c(-c2c(OC)cc(OC)cc2OC)c(OC)c1,-31.1,-5.4,-4.4,3.4,1.5,83.5,120,77.7,88.4,104
CC(Oc1ccccc1)C(=O)N[C@@H]1C(=O)N2[C@@H]1SC(C)(C)[C@@H]2C(=O)O (stereo not given in full),-8.6,-47.8,-36.2,-15.9,34.3,115,121,138,98.9,140
CC1(C)C[C@@H]2C(=O)CC[C@H]3O[C@]3(C)CC[C@H]21,35.9,6,-6.9,40.6,3.3,128,103,51.9,116,85.5
C[C@@H]1[C@H](O)[C@@H](C)/C=C/C=C/C=C/C=C/C=C/C=C/C=C/[C@H](O[C@@H]2O[C@H](C)[C@@H](O)[C@H](N)[C@@H]2O)C[C@@H]2O[C@](O)(C[C@@H](O)C[C@@H](O)[C@H](O)CC[C@@H](O)C[C@@H](O)CC(=O)O[C@H]1C)C[C@H](O)[C@H]2C(=O)O,-1.7,-2.1,18.9,1.6,11.3,107,113,132,112,93.2
O=c1oc2c(O)c(O)cc3c(=O)oc4c(O)c(O)cc1c4c23,7.6,4.7,26.8,7.9,5.3,115,131,96.3,113,152
CCOC(=O)CCC(=O)O[C@H]1[C@H](O[C@@H]2[C@@H](C)[C@H](O[C@H]3C[C@@](C)(OC)[C@@H](O)[C@H](C)O3)[C@@H](C)C(=O)O[C@H](CC)[C@@](C)(O)[C@H](O)[C@@H](C)C(=O)[C@H](C)C[C@@]2(C)O)O[C@H](C)C[C@@H]1N(C)C,-0.3,-6.4,-2.1,5.5,-22.2,92.9,93.3,109,106,92.7
